Patent publication US20140127235A1, “TARGETING HK alpha FOR CONTROLLING BLOOD PRESSURE AND REGULATING ELECTROLYTE BALANCE” (UNIVERSITY OF FLORIDA RESEARCH FOUNDATION, INC., priority 2011, published 2014)

Tested on: H^+,K^+-ATPase
Assay: H+,K+-ATPase-mediated H+ secretion (JH) in intercalated cells of microperfused inner cortical collecting ducts from DOCP-treated mice (BCECF-AM)
Format: in vivo, mouse
Details: for Cl− Removal (change in pH) / Cl− Return (change in pH) / βi, buffering capacity: inner CCD of DOCP-treated mice
Protocol: One likely mechanism for mineralocorticoid-induced changes in acid-base homeostasis was stimulation of renal H^+,K^+-ATPase activity in response to mineralocorticoid-induced K^+ deficits. Therefore, H^+,K^+-ATPase activity was assessed in inner cortical collecting ducts from control and DOCP-treated mice. Individual intercalated cells from microperfused collecting ducts were loaded with the pH sensitive fluorescent dye, BCECF-AM. The addition of inhibitors of the Na^+/H^+ exchanger and the H^+-ATPase allowed for the measurement of H^+,K^+-ATPase-mediated H^+ secretion (JH) in response to an acute intracellular acid load (NH4Cl). The overall rate of H^+,K^+-ATPase-mediated JH in intercalated cells from control mice was quite slow (˜15H^+/min) (FIG. 1).
Additional experiments were conducted to identify which intercalated cell subtype was responsible for the DOCP-induced increase in H^+,K^+-ATPase mediated JH. Again, the rate of H^+,K^+-ATPase-mediated JH was measured in intercalated cells of inner cortical collecting ducts from control and DOCP-treated mice. At the end of the experiment, A- and B-type ICs were differentiated by peritubular Cl^− removal and return as has been described previously^12,13 The characteristic inverse responses of A- and B-type intercalated cells to Cl^− removal and return were observed (Table 2). […] There was no difference in the rate of H^+,K^+-ATPase mediated JH in A- and B-type intercalated cells from control mice (FIG. 2).
Inner cortical collecting ducts were hand dissected at 4° C., transferred to a mounting chamber and perfused as described previously.^25 The ratiometric, pH sensitive dye, BCECF-AM (15 μM, Invitrogen) was added to the luminal perfusate for 10 minutes and fluorescence measurements were performed after dye de-esterification. Tubules were equilibrated with 100 nM bafilomycin A1 in the luminal perfusate and 10 μM EIPA in the peritubular solution for 20 minutes and inhibitors were present throughout the remainder of the experiment. Cells were acid loaded by a 3 minute, peritubular exposure to 40 mM NH4Cl followed by NH4Cl removal. Ratiometric intensity measurements 490/440) were made in individual, well defined ICs and converted to pH, using linear regression, based on a high K^+/nigericin calibration curve. Recovery rates were calculated from the linear portion of the pH, recovery phase starting with the lowest pH, achieved. The intrinsic buffering capacity was calculated from the formula βi=ΔHi/ΔpHi where ΔHi is the change in the calculated [NH4]i and ΔpHi the change in pHi during the acid loaded phase. Acid secretion rates (JH) were calculated from the formula JH=βi*ΔpH, (U/min) and expressed as [H^+]/min. A- and B-type ICs were differentiated using peritubular chloride removal and return in HCO3^− containing solutions as described previously.^25-27

SMILES: CC(C)(C)C(=O)OCC(=O)[C@H]1CC[C@H]2[C@@H]3CCC4=CC(=O)CC[C@]4(C)[C@H]3CC[C@]12C [DOCP, desoxycorticosterone pivalate]
- Cl− Removal (change in pH) (A-type IC): 0.59 ± 0.04 U/min
- Cl− Return (change in pH) (A-type IC): −0.37 ± 0.06 U/min
- βi, buffering capacity (A-type IC): 86.8 ± 16.6 U/min
- Cl− Removal (change in pH) (B-type IC): −0.35 ± 0.03 U/min
- Cl− Return (change in pH) (B-type IC): 0.37 ± 0.03 U/min
- βi, buffering capacity (B-type IC): 87.7 ± 9.02 U/min
- effect on intrinsic buffering capacity (βi) (intercalated cells, DOCP treatment): not significantly affected
